Laboratory results: paper doi:10.1101/2021.08.26.457770 (bioRxiv, 2021)
Results are given in words; binding and its absence hold for the method and conditions named. Some results given as binding are weak or reduced against the parent protein; the word gives no strength.

Sequences of proteins named here, by UniProt entry; tags and fusion partners are left off.
UniProt P0AFZ3: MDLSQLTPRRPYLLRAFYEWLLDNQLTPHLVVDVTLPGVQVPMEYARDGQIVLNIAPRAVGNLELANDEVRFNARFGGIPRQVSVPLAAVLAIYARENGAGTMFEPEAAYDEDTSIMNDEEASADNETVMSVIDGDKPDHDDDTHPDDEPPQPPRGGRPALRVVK

What was measured:
[1] = biological target: eGFP-… (Escherichia coli); test: MST
[2] = biological target: eGFP-SENYALAA (Escherichia coli); test: MST
[3] = biological target: eGFP-AANDENY (Escherichia coli); test: MST
[4] = biological target: eGFP-SENYALAA (Escherichia coli); test: native gel or EMSA

Q: With “SspB protein (ClpX adaptor) (from UniProt P0AFZ3 1-165)” as the substance, how does the binding [1] read?
A: Its binding is “binds”.

Q: And the binding [2]?
A: The binding was “no binding (tested: SspB up to 122 µM)”.

Q: And the binding [3]?
A: Its binding is “binds”.

Q: What about the binding [4] of the same substance?
A: Its binding is “no binding (tested: 8 µM each)”.
